# Record: PubChem BioAssay AID504744 (Drosophila RNAi Screening Center, 2011)
# Assay: 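Uncover factors, including feedback loops, that control dAkt activation in fly cells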 (primary screen)
# Cell system: Drosophila Kc167 cells
# Knock-down reagent: long dsRNA against Drosophila genes, 250 ng dsRNA per well of a 384-well plate
# Time to read-out: 3 days of knock-down, then overnight serum-free starvation before stimulation
# Treatment: bovine insulin at 387 nM for 10 minutes after 12 h without serum
# Detection: 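Per-well phospho-dAkt level from an in-cell fluorescent antibody stain, divided by a DNA-dye signal; log2 residuals turned into z-scores that take cell number into account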
# Rule for the call: 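Under insulin, a gene counts as a hit if the average z-score of two replicates lies above 2.5 or below -2.5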
# The deposit covers about 23,000 reagents; this is a random part of those that have a named target and a result. In the full data, 98 (0.43%) are marked active. 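Only hit calls are given; the phospho-dAkt signals, z-scores and hit direction were not deposited.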 The numbers tell different reagents against one gene apart. A plus sign joins genes that one reagent is predicted to hit. No sequences are given here.
target,reagent,activity call
CG13856 (GeneID 42628),1,inactive
Ca-alpha1T (GeneID 31550),1,inactive
Ca-alpha1T (GeneID 31550),2,inactive
Ca-alpha1T (GeneID 31550),3,inactive
Ca-alpha1T (GeneID 31550),4,inactive
Ca-alpha1T (GeneID 31550),5,inactive
EcR (GeneID 35540),1,inactive
EcR (GeneID 35540),2,inactive
CG3402 (GeneID 38077),1,inactive
Arms (GeneID 37433),1,inactive
Arms (GeneID 37433),2,inactive
Arms (GeneID 37433),3,inactive
Arms (GeneID 37433),4,inactive
CG8160 (GeneID 36701),1,inactive
CG8160 (GeneID 36701),2,inactive
Incenp (GeneID 35649),1,inactive
Incenp (GeneID 35649),2,inactive
CG2070 (GeneID 35706),1,inactive
Srp14 (GeneID 42436),1,inactive
CG5653 (GeneID 39024),1,inactive
hb (GeneID 41032),1,inactive
CG13086 (GeneID 35208),1,inactive
CG42366 (GeneID 34319),1,inactive
Eip74EF (GeneID 39962),1,inactive
Eip74EF (GeneID 39962),2,inactive
CG9123 (GeneID 32462),1,inactive
Sras (GeneID 44002),1,inactive
mRpL44 (GeneID 40656),1,inactive
CG15202 (GeneID 32052),1,inactive
CG32106 (GeneID 317855),1,inactive
maf-S (GeneID 37336),1,inactive
CG13995 (GeneID 33851),1,inactive
CG13995 (GeneID 33851),2,inactive
CG13995 (GeneID 33851),3,inactive
gas (GeneID 37572),1,inactive
Ptip (GeneID 39552),1,inactive
Ptip (GeneID 39552),2,inactive
CG13023 (GeneID 39894),1,inactive
CG13023 (GeneID 39894),2,inactive
CG15255 (GeneID 34913),1,inactive
CG15767 (GeneID 31508),1,inactive
TAF1C-like (GeneID 37450),1,inactive
nonA-l (GeneID 42026),1,inactive
aus (GeneID 42531),1,inactive
aus (GeneID 42531),2,inactive
aus (GeneID 42531),3,inactive
mAChR-B (GeneID 40955),1,inactive
CG13557 (GeneID 37717),1,inactive
CG8777 (GeneID 35921),1,inactive
jb (GeneID 33032),1,inactive
CG7530 (GeneID 41784),1,inactive
Bdp1 (GeneID 34748),1,inactive
elg1 (GeneID 39770),1,inactive
Cht8 (GeneID 37390),1,inactive
mnd (GeneID 39625),1,inactive
ATP7 (GeneID 32142),1,inactive
ari-2 (GeneID 37542),1,inactive
CG13306 (GeneID 50301),1,inactive
CG6236 (GeneID 41857),1,inactive
TotF (GeneID 117461),1,inactive
Cht4 (GeneID 49815),1,inactive
CG3534 (GeneID 42047),1,inactive
sr (GeneID 42162),1,inactive
sr (GeneID 42162),2,inactive
CG34034 (GeneID 3885584),1,inactive
CG3511 (GeneID 37926),1,inactive
tzn (GeneID 40299),1,inactive
CG1662 (GeneID 32296),1,inactive

Continued, starting with the last 17 of the part before.
target,reagent,activity call
Bdp1 (GeneID 34748),1,inactive
elg1 (GeneID 39770),1,inactive
Cht8 (GeneID 37390),1,inactive
mnd (GeneID 39625),1,inactive
ATP7 (GeneID 32142),1,inactive
ari-2 (GeneID 37542),1,inactive
CG13306 (GeneID 50301),1,inactive
CG6236 (GeneID 41857),1,inactive
TotF (GeneID 117461),1,inactive
Cht4 (GeneID 49815),1,inactive
CG3534 (GeneID 42047),1,inactive
sr (GeneID 42162),1,inactive
sr (GeneID 42162),2,inactive
CG34034 (GeneID 3885584),1,inactive
CG3511 (GeneID 37926),1,inactive
tzn (GeneID 40299),1,inactive
CG1662 (GeneID 32296),1,inactive
Shawn + Tyler,1,inactive
Shawn + Tyler,2,inactive
AlaRS (GeneID 34156),1,inactive
CARPB (GeneID 31915),1,inactive
CARPB (GeneID 31915),2,inactive
CG31301 (GeneID 41865),1,inactive
snama (GeneID 37857),1,inactive
Mul1 (GeneID 38472),1,inactive
Pfdn4 (GeneID 38615),1,inactive
CG31999 (GeneID 43777),1,inactive
CG31999 (GeneID 43777),2,inactive
CG13053 (GeneID 50274),1,inactive
hay (GeneID 39202),1,inactive
mmd (GeneID 32561),1,inactive
mmd (GeneID 32561),2,inactive
mmd (GeneID 32561),3,inactive
CG6701 (GeneID 36550),1,inactive
CG31759 (GeneID 326158),1,inactive
Vha100-5 (GeneID 34587),1,inactive
veg (retired record) (GeneID 44057),1,inactive
Cpr23B (GeneID 33480),1,inactive
CG3301 (GeneID 42528),1,inactive
Or43a (GeneID 35644),1,inactive
Mmp1 (GeneID 37949),1,inactive
CG2124 (GeneID 31989),1,inactive
EndoB (GeneID 37218),1,inactive
Obp22a (GeneID 246672),1,inactive
ash1 (GeneID 40133),1,inactive
Spec2 (retired record) (GeneID 3772539),1,inactive
Spec2 (retired record) (GeneID 3772539),2,inactive
CG2209 (GeneID 32250),1,inactive
CG32507 (GeneID 318060),1,inactive
CG6153 (GeneID 34675),1,inactive
CG9525 (GeneID 34217),1,inactive
CG6048 (GeneID 31528),1,inactive
yps (GeneID 39377),1,inactive
cd (GeneID 42681),1,inactive
sev (GeneID 32039),1,inactive
CR34254 (GeneID 5740610),1,inactive
Cf2 (GeneID 33692),1,inactive
CG5853 (GeneID 34322),1,inactive
CG5853 (GeneID 34322),2,inactive
CG14000 (GeneID 33820),1,inactive
eIF4EHP (GeneID 326255),1,inactive
eIF4EHP (GeneID 326255),2,inactive
YL-1 (GeneID 34516),1,inactive
Acf (GeneID 43751),1,inactive
CG31544 (retired record) (GeneID 318792),1,inactive
ttm2 (GeneID 38049),1,inactive
CG15572 (GeneID 31371),1,inactive
ppk7 (GeneID 33886),1,inactive
CG30082 (GeneID 246443),1,inactive
RanBPM (GeneID 36102),1,inactive
Lac (GeneID 36363),1,inactive
ath (GeneID 34357),1,inactive
CG30376 (GeneID 246576),1,inactive
CG14435 (GeneID 31628),1,inactive
jigr1 (GeneID 43093),1,inactive
jigr1 (GeneID 43093),2,inactive
jigr1 (GeneID 43093),3,inactive
RhoGAPp190 (GeneID 32743),1,inactive
RhoGAPp190 (GeneID 32743),2,inactive
CG11777 (GeneID 36108),1,inactive
r2d2 (GeneID 34066),1,inactive
CG11837 (GeneID 43429),1,inactive
Snr1 (GeneID 40657),1,inactive
CNPYb (GeneID 40084),1,inactive
AANATL4 (GeneID 37213),1,inactive
PGAP5 (GeneID 34116),1,inactive
CG17329 (GeneID 34958),1,inactive
CG13989 (GeneID 33869),1,inactive
CG10934 (GeneID 37013),1,inactive
CG44001 + CG33995,1,inactive
CG44001 + CG33995,2,inactive
mub (GeneID 40436),1,inactive
frac (GeneID 38850),1,inactive
Dab (GeneID 39866),1,inactive
CG34241 (GeneID 5740575),1,inactive
C15 (GeneID 42544),1,inactive
C15 (GeneID 42544),2,inactive
BHD (GeneID 38793),1,inactive
BHD (GeneID 38793),2,inactive
CG4438 (GeneID 34257),1,inactive
Pvr (GeneID 34127),1,inactive
CG12035 (GeneID 38217),1,inactive
gammaCOP (GeneID 43717),1,inactive
CG34028 (GeneID 3885648),1,inactive
ana2 (GeneID 35878),1,inactive
CG10628 (GeneID 35263),1,inactive
